In patent publication US6359194:
These are yes or no findings as the source states them, for the method shown. For part of these data: Binding seen in cells or lysates may run through a third protein. Some binding calls cover weakened binding; strength is not graded here. Where a sequence is shown, tags or fusion partners need not be part of it. Each block holds one binder with its values, some of them ahead of it.

Sequences of proteins named here, by UniProt entry; tags and fusion partners are left off. A change or cut given only in a name is not applied to a line headed by its entry.
UniProt P04386: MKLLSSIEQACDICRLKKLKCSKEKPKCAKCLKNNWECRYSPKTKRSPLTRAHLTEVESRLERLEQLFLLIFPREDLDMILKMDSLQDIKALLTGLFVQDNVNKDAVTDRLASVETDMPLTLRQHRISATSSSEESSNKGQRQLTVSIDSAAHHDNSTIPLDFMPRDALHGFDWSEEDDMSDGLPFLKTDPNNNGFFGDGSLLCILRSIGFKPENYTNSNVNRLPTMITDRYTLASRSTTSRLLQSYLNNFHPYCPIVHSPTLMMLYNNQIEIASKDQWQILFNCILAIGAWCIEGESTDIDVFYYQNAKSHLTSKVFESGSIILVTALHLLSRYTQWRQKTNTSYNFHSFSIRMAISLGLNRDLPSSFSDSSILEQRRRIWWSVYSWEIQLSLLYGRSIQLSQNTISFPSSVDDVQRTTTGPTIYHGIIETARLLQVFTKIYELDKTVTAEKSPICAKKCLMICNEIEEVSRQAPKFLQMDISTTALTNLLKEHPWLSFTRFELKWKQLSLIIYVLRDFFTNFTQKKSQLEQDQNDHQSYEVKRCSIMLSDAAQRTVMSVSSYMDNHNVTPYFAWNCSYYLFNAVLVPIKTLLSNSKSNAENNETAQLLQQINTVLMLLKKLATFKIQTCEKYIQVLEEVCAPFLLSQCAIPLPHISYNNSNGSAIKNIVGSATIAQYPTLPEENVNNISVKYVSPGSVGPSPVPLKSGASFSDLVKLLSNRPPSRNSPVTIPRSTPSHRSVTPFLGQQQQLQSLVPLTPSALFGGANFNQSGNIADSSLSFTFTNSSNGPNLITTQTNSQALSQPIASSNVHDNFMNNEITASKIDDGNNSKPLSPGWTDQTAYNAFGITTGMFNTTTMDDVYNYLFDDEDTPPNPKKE
UniProt O15105: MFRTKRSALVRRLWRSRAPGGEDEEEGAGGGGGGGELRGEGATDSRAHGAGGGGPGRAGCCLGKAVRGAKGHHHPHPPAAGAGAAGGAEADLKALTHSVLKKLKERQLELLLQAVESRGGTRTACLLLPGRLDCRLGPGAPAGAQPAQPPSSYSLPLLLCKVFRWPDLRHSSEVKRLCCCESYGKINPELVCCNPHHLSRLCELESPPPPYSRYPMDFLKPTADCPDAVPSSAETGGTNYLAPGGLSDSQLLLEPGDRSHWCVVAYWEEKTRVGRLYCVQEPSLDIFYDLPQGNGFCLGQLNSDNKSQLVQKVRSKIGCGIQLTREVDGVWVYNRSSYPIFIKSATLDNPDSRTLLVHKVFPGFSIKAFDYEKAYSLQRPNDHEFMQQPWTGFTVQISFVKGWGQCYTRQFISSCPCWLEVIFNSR
UniProt Q15796: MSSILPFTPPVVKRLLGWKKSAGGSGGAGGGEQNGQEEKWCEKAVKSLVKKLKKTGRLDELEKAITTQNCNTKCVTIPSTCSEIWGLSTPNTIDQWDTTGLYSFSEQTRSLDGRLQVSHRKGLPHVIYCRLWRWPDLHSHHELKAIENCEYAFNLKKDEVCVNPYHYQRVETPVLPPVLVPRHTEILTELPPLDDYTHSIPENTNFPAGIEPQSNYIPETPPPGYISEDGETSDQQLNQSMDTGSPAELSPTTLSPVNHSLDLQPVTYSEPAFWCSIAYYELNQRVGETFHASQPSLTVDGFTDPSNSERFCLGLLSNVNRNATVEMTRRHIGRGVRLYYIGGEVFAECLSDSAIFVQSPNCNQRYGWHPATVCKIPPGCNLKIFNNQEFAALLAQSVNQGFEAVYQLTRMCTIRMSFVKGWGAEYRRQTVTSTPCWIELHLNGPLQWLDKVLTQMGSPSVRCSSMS
UniProt Q15797: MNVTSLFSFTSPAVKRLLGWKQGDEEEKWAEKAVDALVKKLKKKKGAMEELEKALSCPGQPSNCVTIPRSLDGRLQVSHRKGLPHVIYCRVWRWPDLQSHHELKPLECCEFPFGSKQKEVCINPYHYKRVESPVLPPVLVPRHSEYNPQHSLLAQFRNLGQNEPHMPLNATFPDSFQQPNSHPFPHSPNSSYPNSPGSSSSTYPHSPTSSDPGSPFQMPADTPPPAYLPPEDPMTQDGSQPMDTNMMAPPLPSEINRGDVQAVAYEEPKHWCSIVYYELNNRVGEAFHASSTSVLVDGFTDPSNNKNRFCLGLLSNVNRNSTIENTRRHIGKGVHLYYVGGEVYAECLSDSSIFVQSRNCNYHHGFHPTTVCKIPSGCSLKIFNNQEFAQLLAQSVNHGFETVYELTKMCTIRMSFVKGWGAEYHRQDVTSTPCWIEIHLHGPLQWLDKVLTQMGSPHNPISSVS
UniProt Q13485: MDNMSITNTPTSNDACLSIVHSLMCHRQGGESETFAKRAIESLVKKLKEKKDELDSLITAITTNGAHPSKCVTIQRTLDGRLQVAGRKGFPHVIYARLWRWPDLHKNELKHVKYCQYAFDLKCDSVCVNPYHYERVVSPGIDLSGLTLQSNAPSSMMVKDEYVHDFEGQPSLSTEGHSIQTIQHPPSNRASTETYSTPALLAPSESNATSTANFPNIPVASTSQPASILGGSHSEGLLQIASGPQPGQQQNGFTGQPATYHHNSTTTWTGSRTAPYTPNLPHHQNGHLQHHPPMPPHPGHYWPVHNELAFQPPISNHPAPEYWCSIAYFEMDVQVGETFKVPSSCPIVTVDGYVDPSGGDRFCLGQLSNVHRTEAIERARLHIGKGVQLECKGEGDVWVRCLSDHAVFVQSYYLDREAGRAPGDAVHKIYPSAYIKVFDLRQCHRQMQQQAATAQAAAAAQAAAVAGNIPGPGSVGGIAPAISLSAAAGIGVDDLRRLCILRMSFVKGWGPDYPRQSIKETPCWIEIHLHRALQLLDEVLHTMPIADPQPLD

Experiments:
[1] = molecular target: T1, GAL4 DNA-binding domain-fchd540 fusion (human) (UniProt P04386+O15105); assay: yeast two-hybrid mating assay (HIS3 and lacZ reporters)
[2] = molecular target: fchd540 protein fused to a flag peptide (transfected 293 cells or BAECs) (human) (UniProt O15105); assay: co-immunoprecipitation from transfected 293 cells and BAECs; said to be significantly less avid than the rchd534 protein's interaction with itself
MADR2 [3] = molecular target: MADR2 (UniProt Q15796); assay: co-immunoprecipitation from transfected 293 cells and BAECs
[4] = molecular target: fchd540 protein fused to a flag peptide (transfected 293 cells or BAECs) (human) (UniProt O15105); assay: as above
MADR1 [5] = molecular target: MADR1 (UniProt Q15797); assay: as above
[6] = molecular target: rchd534 protein fused to a flag peptide (transfected 293 cells or BAECs) (human) (UniProt O43541); assay: as above
[7] = molecular target: rchd534 protein fused to a flag peptide (transfected 293 cells or BAECs) (human) (UniProt O43541); assay: co-immunoprecipitation (summary at the head of the example)
MADR2 [8] = molecular target: MADR2 (UniProt Q15796); assay: co-immunoprecipitation (summary at the head of the example; strongly, endothelial cells)
[9] = molecular target: DPC4 (transfected 293 cells or BAECs) (UniProt Q13485); assay: as above
MADR1 [10] = molecular target: MADR1 (UniProt Q15797); assay: as above
[11] = molecular target: DPC4 (transfected 293 cells or BAECs) (UniProt Q13485); assay: co-immunoprecipitation from transfected 293 cells and BAECs; much greater in BAECs for DPC4
[12] = molecular target: T1, GAL4 DNA-binding domain-fchd540 fusion (human); assay: yeast two-hybrid screen of a human breast library with fchd540 bait (strain TB35)

B1: GAL4 transcriptional activation domain-rchd534 fusion (protein, human, UniProt O43541-2 1-235, looked up, not shown: large carriers)
chain: MSRMGKPIETQKSPPPPYSRLSPRDEYKPLDLSDSTLSYTETEATNSLITAPGEFSDASMSPDATKPSHWCSVAYWEHRTRVGRLYAVYDQAVSIFYDLPQGSGFCLGQLNLEQRSESVRRTRSKIGFGILLSKEPDGVWAYNRGEHPIFVNSPTLDAPGGRALVVRKVPPGYSIKVFDFERSGLQHAPEPDAADGPYDPNSVRISFAKGWGPCYSRQFITSCPCWLEILLNNPR
- binding [1]: binds

B2: rchd534 protein fused to a flag peptide (transfected 293 cells or BAECs) (protein, human, UniProt O43541-2 1-235, looked up, not shown: small tags and cut ends)
chain: B1 chain
- binding [2]: binds
- binding (MADR2 [3]): binds
- binding [4]: binds
- binding (MADR1 [5]): binds
- binding [6]: binds
- binding [7]: binds
- binding (MADR2 [8]): binds
- binding [9]: binds
- binding (MADR1 [10]): binds
- binding [11]: binds

Further lines, results first:

- binding [1]: binds
- binding [12]: binds
B3: tchvR4A (GAL4 activation domain fusion to amino acids 25-235 of rchd534) (protein, not shown: large carriers)
chain: DEYKPLDLSDSTLSYTETEATNSLITAPGEFSDASMSPDATKPSHWCSVAYWEHRTRVGRLYAVYDQAVSIFYDLPQGSGFCLGQLNLEQRSESVRRTRSKIGFGILLSKEPDGVWAYNRGEHPIFVNSPTLDAPGGRALVVRKVPPGYSIKVFDFERSGLQHAPEPDAADGPYDPNSVRISFAKGWGPCYSRQFITSCPCWLEILLNNPR

- binding [1]: binds
- binding [12]: binds
B4: tchv03A (GAL4 activation domain fusion to amino acids 17-235 of rchd534) (protein, not shown: large carriers)
chain: PYSRLSPRDEYKPLDLSDSTLSYTETEATNSLITAPGEFSDASMSPDATKPSHWCSVAYWEHRTRVGRLYAVYDQAVSIFYDLPQGSGFCLGQLNLEQRSESVRRTRSKIGFGILLSKEPDGVWAYNRGEHPIFVNSPTLDAPGGRALVVRKVPPGYSIKVFDFERSGLQHAPEPDAADGPYDPNSVRISFAKGWGPCYSRQFITSCPCWLEILLNNPR
